Measurements as given in patent US20180112198.
Where cells or extracts were used, other partners may take part. No signal at the amounts used counts as a negative. Where a protein sequence is shown, tags need not be part of it.

Target: T1, GFP/MCPIP1 fusion (ZC3H12A) (Homo sapiens) (UniProt Q5D1E8)
T1 sequence (limits assumed): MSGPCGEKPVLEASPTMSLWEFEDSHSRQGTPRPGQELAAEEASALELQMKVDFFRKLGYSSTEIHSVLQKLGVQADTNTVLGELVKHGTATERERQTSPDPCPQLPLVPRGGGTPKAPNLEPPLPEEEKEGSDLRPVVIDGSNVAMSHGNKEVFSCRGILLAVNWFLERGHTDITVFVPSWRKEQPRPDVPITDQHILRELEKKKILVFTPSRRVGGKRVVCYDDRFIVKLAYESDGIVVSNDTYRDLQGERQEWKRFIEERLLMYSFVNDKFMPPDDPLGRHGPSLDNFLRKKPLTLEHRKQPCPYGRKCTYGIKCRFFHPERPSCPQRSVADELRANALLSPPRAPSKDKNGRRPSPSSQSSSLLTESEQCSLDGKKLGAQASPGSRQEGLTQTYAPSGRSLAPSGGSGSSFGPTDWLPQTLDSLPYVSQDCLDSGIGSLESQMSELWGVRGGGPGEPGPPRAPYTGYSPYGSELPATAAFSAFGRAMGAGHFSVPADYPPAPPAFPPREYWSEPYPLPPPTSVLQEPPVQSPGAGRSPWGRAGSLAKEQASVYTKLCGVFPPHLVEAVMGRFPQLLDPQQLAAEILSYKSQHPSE
Assay: EMSA
Settings: stem-loop disrupted, cell lysate, protein in a lysate after overexpression, protein details: GFP fusion, Dox-induced in MDA-MB-231/Tet-On cells, label: 3' biotin

“UGAGGAGACAUUGGCUUGC [huBcl2L1 3'UTR mut probe]”: no binding (variant of huBcl2L1 3'UTR WT probe).

“UGCAUAUAUUCGGAAUGACAUU [huBIRC3 3'UTR mut probe]”: no binding (variant of huBIRC3 3'UTR WT probe).
